{
  "sequences": {"note": "The chains behind the UniProt entries cited, without tags or fusion partners.", "UniProt A2RUB1": "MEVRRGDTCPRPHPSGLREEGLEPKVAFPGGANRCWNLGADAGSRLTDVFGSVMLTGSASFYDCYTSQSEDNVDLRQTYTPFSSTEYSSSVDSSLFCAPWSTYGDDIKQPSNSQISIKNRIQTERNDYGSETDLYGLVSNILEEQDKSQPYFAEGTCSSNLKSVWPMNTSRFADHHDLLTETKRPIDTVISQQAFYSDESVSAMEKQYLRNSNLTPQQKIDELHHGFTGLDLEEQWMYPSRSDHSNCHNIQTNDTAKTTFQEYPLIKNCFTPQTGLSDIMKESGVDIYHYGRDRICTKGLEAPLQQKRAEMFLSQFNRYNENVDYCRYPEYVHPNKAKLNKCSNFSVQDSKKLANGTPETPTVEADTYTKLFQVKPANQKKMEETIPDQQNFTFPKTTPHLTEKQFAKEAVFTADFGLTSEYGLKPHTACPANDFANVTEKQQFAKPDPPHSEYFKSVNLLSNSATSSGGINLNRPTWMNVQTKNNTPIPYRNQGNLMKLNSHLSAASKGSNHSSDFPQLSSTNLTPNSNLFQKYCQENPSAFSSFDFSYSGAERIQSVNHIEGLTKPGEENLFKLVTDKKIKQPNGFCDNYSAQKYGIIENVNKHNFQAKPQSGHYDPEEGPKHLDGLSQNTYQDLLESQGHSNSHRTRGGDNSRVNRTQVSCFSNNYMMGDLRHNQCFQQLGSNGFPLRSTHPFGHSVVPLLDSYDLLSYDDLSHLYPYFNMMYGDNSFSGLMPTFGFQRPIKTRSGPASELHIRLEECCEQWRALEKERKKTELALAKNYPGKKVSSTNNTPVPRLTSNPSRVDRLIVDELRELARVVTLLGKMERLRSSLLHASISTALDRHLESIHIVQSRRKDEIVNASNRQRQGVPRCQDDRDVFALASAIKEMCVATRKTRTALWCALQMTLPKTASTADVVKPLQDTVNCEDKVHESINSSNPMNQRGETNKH"},
  "source": "paper PMC8983136",
  "key": {"[1]": {"target": "T1, WT FLAG-tagged YTHDC2 (pcDNA3.1-HsYTHDC2-1-1430-Flag) (human) (UniProt Q9H6S0)", "T1 sequence": "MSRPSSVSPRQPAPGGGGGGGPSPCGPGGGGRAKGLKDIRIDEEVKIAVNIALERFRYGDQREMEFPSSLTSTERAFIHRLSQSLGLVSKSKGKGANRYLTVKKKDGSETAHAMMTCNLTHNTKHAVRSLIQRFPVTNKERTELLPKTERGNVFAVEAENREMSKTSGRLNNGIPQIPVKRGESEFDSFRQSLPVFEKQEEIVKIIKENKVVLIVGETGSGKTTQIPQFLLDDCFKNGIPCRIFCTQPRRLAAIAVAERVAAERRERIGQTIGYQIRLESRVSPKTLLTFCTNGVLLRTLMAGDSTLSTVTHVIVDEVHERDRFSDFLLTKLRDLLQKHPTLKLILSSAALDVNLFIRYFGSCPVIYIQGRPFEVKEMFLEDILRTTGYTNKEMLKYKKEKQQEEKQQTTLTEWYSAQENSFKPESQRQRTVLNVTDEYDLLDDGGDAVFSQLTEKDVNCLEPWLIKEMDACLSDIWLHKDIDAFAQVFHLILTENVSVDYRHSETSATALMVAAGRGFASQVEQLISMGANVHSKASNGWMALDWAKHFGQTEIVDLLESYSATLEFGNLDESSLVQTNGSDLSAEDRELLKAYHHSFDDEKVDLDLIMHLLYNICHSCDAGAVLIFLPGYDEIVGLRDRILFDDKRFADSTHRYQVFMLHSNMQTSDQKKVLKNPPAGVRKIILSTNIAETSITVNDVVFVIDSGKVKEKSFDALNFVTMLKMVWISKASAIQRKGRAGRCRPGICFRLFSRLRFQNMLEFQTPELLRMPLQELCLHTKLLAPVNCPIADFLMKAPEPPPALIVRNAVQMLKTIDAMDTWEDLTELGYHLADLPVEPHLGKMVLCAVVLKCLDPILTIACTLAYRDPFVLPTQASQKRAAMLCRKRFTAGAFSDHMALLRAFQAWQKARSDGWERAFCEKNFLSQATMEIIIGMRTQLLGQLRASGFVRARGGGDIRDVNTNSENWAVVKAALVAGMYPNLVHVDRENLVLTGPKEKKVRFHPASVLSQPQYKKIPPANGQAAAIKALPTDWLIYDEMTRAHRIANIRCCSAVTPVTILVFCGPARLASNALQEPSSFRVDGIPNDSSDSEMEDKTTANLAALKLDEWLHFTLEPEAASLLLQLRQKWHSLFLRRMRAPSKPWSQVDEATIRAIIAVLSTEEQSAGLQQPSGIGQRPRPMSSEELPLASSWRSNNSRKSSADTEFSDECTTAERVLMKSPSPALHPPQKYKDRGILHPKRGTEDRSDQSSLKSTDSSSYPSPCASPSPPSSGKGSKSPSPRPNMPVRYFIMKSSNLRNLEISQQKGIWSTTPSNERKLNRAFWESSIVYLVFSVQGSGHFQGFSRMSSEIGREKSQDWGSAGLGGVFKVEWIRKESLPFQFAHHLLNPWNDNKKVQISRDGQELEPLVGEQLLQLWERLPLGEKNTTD", "assay": "co-IP; HEK-293 cells co-transfected with WT or mutant YTHDC2-Flag and HA-MEIOC; lysate diluted in binding buffer (150 mM NaCl, 20 mM Tris-HCl pH 7.5, 1 mM EDTA, 10% glycerol, 0.1% BSA); anti-FLAG M2 magnetic beads overnight at 4°C; RNase A (100 μg/mL) when required; blots with anti-Flag and anti-HA"}, "[2]": {"target": "T2, p.P856R FLAG-tagged YTHDC2 (pcDNA3.1-HsYTHDC2-1-1430-P856R-Flag) (human) (UniProt Q9H6S0)", "T2 sequence": "T1 sequence with P856R", "assay": "co-IP; HEK-293 cells co-transfected with WT or mutant YTHDC2-Flag and HA-MEIOC; lysate diluted in binding buffer (150 mM NaCl, 20 mM Tris-HCl pH 7.5, 1 mM EDTA, 10% glycerol, 0.1% BSA); anti-FLAG M2 magnetic beads overnight at 4°C; RNase A (100 μg/mL) when required; blots with anti-Flag and anti-HA"}},
  "note": "Where a chain is given by its changes, count along the chain named. No constants are given. Whether binding was seen depends on the method and setting. Binding seen in cells or lysates may run through a third protein. Some binding calls cover weakened binding; strength is not graded here. Sequences can lack the tags named with a protein.",
  "data": [
    {"substance": "HA-tagged MEIOC (from UniProt A2RUB1 1-952)", "values": [
      {"measurement": "binding", "setting": "[1]", "result": "binds"},
      {"measurement": "binding", "setting": "[2]", "result": "binds"}
    ]}
  ]
}
